Earlier results in US11241410B2, “Method and compound for the treatment of covid-19” (priority 2020, dated 2022).
For at least one compound, name, drawing or mass did not settle the structure.

Target: T1, SARS-CoV-2 main protease (Severe acute respiratory syndrome coronavirus 2, UniProt P0DTD1)
T1 construct: also MProtease (SARS-CoV-2 main protease)
Conditions: auto dock; cited from earlier work

In the case of `CCCCCCCCc1ccc(CCC(N)(CO)CO)cc1` [Fingolimod], the “Dissociation Constant” value is listed as 5.0E−05, the SMINA score is listed as −5.6 and the Vina score is listed as −5.9.
